Test results reported in PubChem BioAssay AID2551 (National Center for Advancing Translational Sciences (NCATS), 2010).
About 17,000 (5.5%) of roughly 310,000 compounds were called active. The inconclusive results got no clear call from the source; some entries with a clear call stand among them for comparison. Calls follow the shape of the dose curve; as a rule, active = well fitted inhibition curve with a large enough effect; inconclusive = small, poorly fitted or top-dose-only effect, or effect the other way; inactive = no such curve, though single readings can be large or run the other way. Potencies beside an inconclusive call are fits to weak or partial responses and may not hold up.

Sequences of proteins named here, by UniProt entry; tags and fusion partners are left off. A change or cut given only in a name is not applied to a line headed by its entry.
UniProt P51450: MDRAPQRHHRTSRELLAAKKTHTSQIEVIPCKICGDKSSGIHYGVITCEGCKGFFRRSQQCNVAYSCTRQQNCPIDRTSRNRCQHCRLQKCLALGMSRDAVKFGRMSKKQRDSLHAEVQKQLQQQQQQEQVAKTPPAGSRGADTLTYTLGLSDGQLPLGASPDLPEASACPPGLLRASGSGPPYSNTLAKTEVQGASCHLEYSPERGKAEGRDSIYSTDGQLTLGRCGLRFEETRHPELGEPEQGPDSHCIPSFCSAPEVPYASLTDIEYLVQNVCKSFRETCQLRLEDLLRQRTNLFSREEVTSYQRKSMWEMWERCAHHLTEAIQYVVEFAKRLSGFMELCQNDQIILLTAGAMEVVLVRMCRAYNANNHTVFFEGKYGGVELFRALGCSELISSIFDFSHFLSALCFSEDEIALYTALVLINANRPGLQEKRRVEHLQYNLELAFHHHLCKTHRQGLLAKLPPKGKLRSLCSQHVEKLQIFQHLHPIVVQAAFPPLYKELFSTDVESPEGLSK

Biological target: Nuclear receptor ROR-gamma (Mus musculus) (UniProt P51450)
Assay: qHTS for inhibitors of ROR gamma transcriptional activity; also: nearly all actives have a fitted effect of over 60% in size
Details: Drosophila S2 Gal4-RORgamma UAS-luciferase reporter, 20 h; activity change, negative = inhibition: at 53.6 µM (top of the series)
In short: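 ROR gamma transcriptional activity was tracked as Gal4-UAS luciferase output in stably transfected Drosophila Schneider cells, with compound added 1 hr before 700 uM copper sulfate induction and a 20 hr ambient-temperature incubation.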
% is scaled to controls: 0 for no effect and ±100 for the full control effect; potency is read from the fitted curve at half-maximal effect.

Potency, active:
CN(c1ccc2nc3ccccc3c(=O)n2n1)C1CCCCC1 0.398 µM, COc1ccc(Cc2nnc(N/N=C/c3ccccc3O)[nH]c2=O)cc1OC 3.98 µM, Oc1cccc(C(Nc2nccs2)c2ccc3cccnc3c2O)c1 (stereo not given) 1.41 µM, Cc1ccc(N2CCN(C(=S)Nc3ccccc3)CC2)cc1 6.31 µM, CCOC(=O)c1cnc2c(OC)cccc2c1Nc1ccc2c(c1)OCCO2 15.8 µM, CCOC(=O)c1c(NC(=O)CN(CC)CC)sc2c1CCC2 12.6 µM, O=[N+]([O-])c1ccc(/C=N/N=C/c2ccc([N+](=O)[O-])o2)o1 1.12 µM, Cc1ccc(NC(=S)NNc2ncc(C(F)(F)F)cc2Cl)cc1 12.6 µM, Cc1ccc(C(C)C)c(OC/C(O)=C(\C#N)c2nc3ccccc3[nH]2)c1 2.24 µM, CC(=O)Nc1ccc(S(=O)(=O)NC2=C(N3CCN(C)CC3)C(=O)c3ccccc3C2=O)cc1 12.6 µM, CC(=Nc1ccccc1O)c1sc2ccccc2c1O 2 µM, Cc1cccc(NC(=S)N2CCC(c3nc4ccccc4s3)CC2)c1 12.6 µM, COc1ccc(N2CCN(C(=S)NC(=O)c3cccs3)CC2)c([N+](=O)[O-])c1 0.316 µM, Cn1cccc1/C=N/NC(=O)c1cccc(OC(F)(F)C(F)F)c1 10 µM

Potency, inconclusive:
O=C(CCl)Nc1cn(-c2ccccc2)nc1-c1ccccc1 35.5 µM [inhibitor, single point], CCc1cc2cc3c(cc2nc1SCC(=O)Nc1nnc(C)s1)OCCO3 1.78 µM [inhibitor, partial curve, poor fit], CCOC(=O)c1c(N)sc(C(=O)Nc2ccccc2)c1C 10 µM [inhibitor, single point], NC(=S)Nc1nccc(-c2cccs2)n1 12.6 µM [inhibitor, partial curve, poor fit], O=C(CCl)c1ccc2c(c1)CCN2C(=O)C1CCCCC1 28.2 µM [inhibitor, single point], CCOC(=O)C1(Cc2cccc(OC)c2)CCN(Cc2cccc3cnccc23)CC1 35.5 µM [inhibitor, single point], O=C(NCC1COc2ccccc2O1)C1CCCN(S(=O)(=O)c2cccc3nsnc23)C1 (stereo not given) 12.6 µM [activator, partial curve], Cc1ccc(N)c(C(=O)CCCCC(=O)O)c1 0.891 µM [inhibitor, full curve, poor fit], CC(C)c1nc2cc(C(=O)N3CCNC(=O)C3c3ccc(F)cc3)ccc2o1 (stereo not given) 17.8 µM [activator, single point], COC(=O)c1ccc(-c2ncc(-c3cccc4ccccc34)o2)cc1 0.398 µM [inhibitor, full curve, poor fit], CCOC(=O)c1sc(NC(=O)CSc2nnc(C(C)C)n2C)nc1C 35.5 µM [activator, single point], O=C(NCc1ccccc1Cl)C1CCN(S(=O)(=O)N2CCCCCC2)CC1 14.1 µM [activator, single point], CC(=O)c1ccc(-c2ccc(-c3cc(=O)oc4c(C(C)C)ccc(C)c34)cc2)cc1 1.58 µM [inhibitor, partial curve], O=C(CN1C2CCCC1CC(NC(=O)C1CCCCC1)C2)Nc1ccccc1C(F)(F)F (stereo not given) 25.1 µM [activator, single point], N#C/C(=C(/O)COc1ccccc1)c1nnc2n1CCCCC2 15.8 µM [inhibitor, single point], CCN(CC)C(=O)c1ccc(S(=O)(=O)Cc2ccc(C)cc2)c([N+](=O)[O-])c1 20 µM [activator, single point], COc1ccc2c(c1)C(=O)[C@H](OC(=O)NS(=O)(=O)c1ccc(F)cc1)[C@@H](c1ccc(OC)c(Br)c1)O2 3.98 µM [inhibitor, partial curve], COc1cc2ccnc(Cc3cccc(OC)c3OC)c2cc1OC 35.5 µM [inhibitor, single point], O=C1C(Cl)=C(N2CCOCC2)C(=O)N1c1cccc(C(F)(F)F)c1 20 µM [inhibitor, single point], O=C(Nc1ccc(Cl)c(Cl)c1)Nc1ccccc1C(=O)O 14.1 µM [inhibitor, single point], Cc1ccc(C(=O)N(C)c2ccc(OCC(=O)N3c4ccc(C)cc4C4CN(C)CCC43)cc2)cc1 (stereo not given) 15.8 µM [inhibitor, single point], CCOC(=O)C1=C(COC(=O)/C=C/c2cc(OC)c(OC)c(OC)c2)NC(=O)NC1C (stereo not given) 10 µM [activator, partial curve], O=C1CC(N2CCN(S(=O)(=O)c3cccc(C(F)(F)F)c3)CC2)C(=O)N1Cc1ccccc1 (stereo not given) 14.1 µM [activator, single point], COC(=O)[C@@]1(Cc2ccc(F)cc2)[C@@H]2C(=CC(=O)[C@H]2CC(=O)C(=O)N(C)C)CN1C(=O)c1ccccc1 35.5 µM [inhibitor, single point], O=Nc1c(O)n(Cc2ccc(Cl)c(Cl)c2)c2ccccc12 5.01 µM [activator, full curve], Cc1ccc(-c2cc3nc(-c4ccccc4)cc(N4CCC5(CC4)OCCO5)n3n2)cc1 5.01 µM [activator, partial curve, poor fit], COc1ccc(C(=O)Nc2nc3ccccc3[nH]2)cc1S(=O)(=O)N1CCOCC1 22.4 µM [inhibitor, single point], COc1ccccc1N/C(N)=N/c1nc(CSc2nc3ccccc3s2)cc(=O)[nH]1 3.55 µM [activator, full curve], N#Cc1c(SCC(=O)O)nc(N2CCCCC2)c2c1CCCC2 35.5 µM [activator, single point], COc1ccc(C(C(=O)Nc2ccc(C(C)C)cc2)N(Cc2ccco2)C(=O)CC2NC(=O)NC2=O)cc1 (stereo not given) 35.5 µM [inhibitor, single point], COc1ccc(-n2c(O)c(/C=N/Nc3nc(C)cc(C)n3)c3ccccc3c2=O)cc1OC 12.6 µM [inhibitor, partial curve], Fc1ccc(NC(=S)N2CCCC2)cc1Cl 10 µM [inhibitor, partial curve], CCOC(=O)CSc1nnc(Cc2ccc(OC)cc2)n1-c1ccccc1 14.1 µM [inhibitor, single point], CCn1cc(C(=O)NCCc2ccccc2)c(=O)c2cc(S(=O)(=O)N3CCCC3)ccc21 12.6 µM [activator, single point], CCOC(=O)N1CCN(C(=O)c2cc(COc3cccc(C(F)(F)F)c3)on2)CC1 31.6 µM [activator, single point], Cc1ccc(-c2csc(NC(=O)c3cccc(N4C(=O)CCC4=O)c3)n2)o1 31.6 µM [inhibitor, single point], COCCn1c(=O)[nH]c(=O)c2cc(C(=O)c3cc(Cl)ccc3O)cnc21 0.282 µM [activator, full curve, poor fit], C/C(N)=C(/C#N)C(=O)CSc1nnc(COc2ccccc2Cl)o1 0.141 µM [activator, single point], Cc1nn(C(=O)c2ccc3c(c2)OCO3)c(N)c1-c1ccccc1 15.8 µM [inhibitor, single point], O=C(c1ccc(Cl)cc1)N1CCc2c([nH]c3ccccc23)C1C(F)(F)F (stereo not given) 14.1 µM [activator, single point]

Activity change, negative = inhibition, inactive:
N=C1/C(=C/c2ccc(-c3cccc(C(=O)O)c3)o2)C(=O)N=C2SC(CC(=O)N3CCOCC3)=NN12 4.33%, CN(C)c1ccc(/C=C(\C#N)c2ccccc2)cc1 -25.8%, CC1(C)CC(=O)C(C=Nc2ccc(O)c(N=CC3=C(O)CC(C)(C)CC3=O)c2)=C(O)C1 -14.1%, NC1(C(=O)O)C[C@H](C(=O)O)[C@H](C(=O)O)C1 (stereo not given in full) 15.2%, O=S1(=O)CCOC[C@H](CC2CCCCC2)N1Cc1ccccc1 -28.3%, CC1CCCN(CCCNC(=O)c2ccc3c(c2)N(Cc2ccc(F)cc2)C(=O)c2ccccc2S3=O)C1 (stereo not given) -16%, Cc1ccc(NC(/C=C/N(C)C)=C/C(=O)C(F)(F)F)c(C)c1 13.7%, COc1ccccc1CNC(=O)CS(=O)Cc1nc(-c2ccc(OC)c(OC)c2)oc1C (stereo not given) -26.8%, CC(CCc1ccccc1)NCC(O)COc1ccccc1 (stereo not given) -44.7%, Fc1cccc(-c2cc3nc4c(c(NCc5ccco5)n3n2)CCCC4)c1 -34.2%, CC(C)(C)N(Cc1ccccc1)C(=O)CSc1ncn[nH]1 -4.86%, COc1cc(OC)c2c(-c3cccc(-c4ccc(CO)cc4)c3)cc(=O)oc2c1 -37.8%, CCOC(=O)c1nnc(-c2ccc(C)cc2)nc1Oc1ccccc1Cl 6.84%, CCOC(=O)c1c(-c2ccc(OC)cc2)csc1NC(=O)CCN1CCOCC1 -26.9%, C[C@H](NC(=O)c1ccco1)C(=O)N1CCCC1 -16%, COc1ccc(NC(=O)c2nc(SC)ncc2Cl)cc1 4.63%
